In assay [1] the target is In trans activated C25A-cathepsin S (human). Put plainly: surface acoustic wave biosensor (sam5BLUE); C25A-cathepsin S immobilized; Bet v 1 at 10 μM at near neutral pH (20 mM Tris-HCl pH 8.5, 20 mM PBS pH 7.4, 20 mM imidazole pH 6.7; 50 mM NaCl except in PBS); both purified.
Assay [2] has the same target. Put plainly: surface acoustic wave biosensor (sam5BLUE); C25A-cathepsin S immobilized; Bet v 1 at 10 μM at acidic pH (20 mM acetic acid pH 5.5 or pH 4.5, 50 mM NaCl); both purified.
Assay [3] shares this target. The assay is described as follows: surface acoustic wave biosensor (sam5BLUE); C25A-cathepsin S immobilized on a sam5 chip; cystatin C injected as a check of structural integrity; conditions not stated; both purified.
Assay [4] shares this target. The assay is described as follows: surface acoustic wave biosensor (sam5BLUE); C25A-cathepsin S immobilized; heat-destabilized Bet v 1 (10 min at 60 °C, spin-filtered) injected, 1a at 10 to 100 μM, 1d at 2.5 to 40 μM; pH 6.7; both purified.

These are yes or no findings as the source states them, for the method shown. Binding can be weak; no strength is given.

B1: Bet v 1d (Bet v 1.0401), hypoallergenic isoform of the major birch pollen allergen (protein, UniProt P43177 1-160)
chain: MGVFNYEIETTSVIPAARLFKAFILDGDNLVPKVAPQAISSVENIEGNGGPGTIKKINFPEGFPFKYVKDRVDEVDHTNFKYNYSVIEGGPVGDTLEKISNEIKIVATPDGGCVLKISNKYHTKGNHEVKAEQVKASKEMGETLLRAVESYLLAHSDAYN
Consider B1, for which the binding result in assay [1] and in assay [2] was “binds” throughout.

B2: cystatin C (protein, UniProt P01034 27-146)
chain: SSPGKPPRLVGGPMDASVEEEGVRRALDFAVGEYNKASNDMYHSRALQVVRARKQIVAGVNYFLDVELGRTTCTKTQPNLDNCPFHDQPHLKRKAFCSFQIYAVPWQGTMTLSKSTCQDA
As to B2, the binding result in assay [3] was “binds”.

B3: Bet v 1a (Bet v 1.0101), major birch pollen allergen (protein, UniProt P15494 2-160)
chain: GVFNYETETTSVIPAARLFKAFILDGDNLFPKVAPQAISSVENIEGNGGPGTIKKISFPEGFPFKYVKDRVDEVDHTNFKYNYSVIEGGPIGDTLEKISNEIKIVATPDGGSILKISNKYHTKGDHEVKAEQVKASKEMGETLLRAVESYLLAHSDAYN
As to B3, the binding entry in assay [4] is given as “binds”; in assay [1] it was “binds weakly”; in assay [2], “binds”.

(Values after publication PMC4522599.)
